According to the supplement of paper PMC10849652:
This is one part of the list.

The chains behind the UniProt entries cited, without tags or fusion partners. Where a name states a change or a piece, a line headed by the entry shows the natural chain unless it says otherwise.
UniProt P18031: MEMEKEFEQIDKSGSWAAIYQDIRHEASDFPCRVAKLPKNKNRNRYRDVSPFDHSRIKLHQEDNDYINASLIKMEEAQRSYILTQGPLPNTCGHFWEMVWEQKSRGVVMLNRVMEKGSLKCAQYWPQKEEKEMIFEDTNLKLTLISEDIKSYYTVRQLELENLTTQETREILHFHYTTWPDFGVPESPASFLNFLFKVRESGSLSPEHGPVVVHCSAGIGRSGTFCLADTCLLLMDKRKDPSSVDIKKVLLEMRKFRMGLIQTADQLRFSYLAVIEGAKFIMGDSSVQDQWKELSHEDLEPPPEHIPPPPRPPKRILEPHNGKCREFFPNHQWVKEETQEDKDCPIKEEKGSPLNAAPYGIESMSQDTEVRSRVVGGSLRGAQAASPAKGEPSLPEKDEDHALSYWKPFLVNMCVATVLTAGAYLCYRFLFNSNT
UniProt Q92530: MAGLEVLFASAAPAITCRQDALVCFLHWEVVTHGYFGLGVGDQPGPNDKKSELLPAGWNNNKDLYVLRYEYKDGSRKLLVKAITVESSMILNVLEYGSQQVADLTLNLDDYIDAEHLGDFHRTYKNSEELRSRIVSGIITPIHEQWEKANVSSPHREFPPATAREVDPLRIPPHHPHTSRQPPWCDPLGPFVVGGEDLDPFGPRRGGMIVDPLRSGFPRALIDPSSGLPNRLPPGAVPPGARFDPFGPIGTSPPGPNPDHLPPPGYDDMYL
UniProt O14818: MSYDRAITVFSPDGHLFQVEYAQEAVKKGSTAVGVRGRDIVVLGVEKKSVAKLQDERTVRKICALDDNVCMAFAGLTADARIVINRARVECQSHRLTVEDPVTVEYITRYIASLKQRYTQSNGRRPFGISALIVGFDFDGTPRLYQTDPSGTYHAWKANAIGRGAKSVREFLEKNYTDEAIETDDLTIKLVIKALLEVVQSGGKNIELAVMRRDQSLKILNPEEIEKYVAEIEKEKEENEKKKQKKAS
UniProt P29350: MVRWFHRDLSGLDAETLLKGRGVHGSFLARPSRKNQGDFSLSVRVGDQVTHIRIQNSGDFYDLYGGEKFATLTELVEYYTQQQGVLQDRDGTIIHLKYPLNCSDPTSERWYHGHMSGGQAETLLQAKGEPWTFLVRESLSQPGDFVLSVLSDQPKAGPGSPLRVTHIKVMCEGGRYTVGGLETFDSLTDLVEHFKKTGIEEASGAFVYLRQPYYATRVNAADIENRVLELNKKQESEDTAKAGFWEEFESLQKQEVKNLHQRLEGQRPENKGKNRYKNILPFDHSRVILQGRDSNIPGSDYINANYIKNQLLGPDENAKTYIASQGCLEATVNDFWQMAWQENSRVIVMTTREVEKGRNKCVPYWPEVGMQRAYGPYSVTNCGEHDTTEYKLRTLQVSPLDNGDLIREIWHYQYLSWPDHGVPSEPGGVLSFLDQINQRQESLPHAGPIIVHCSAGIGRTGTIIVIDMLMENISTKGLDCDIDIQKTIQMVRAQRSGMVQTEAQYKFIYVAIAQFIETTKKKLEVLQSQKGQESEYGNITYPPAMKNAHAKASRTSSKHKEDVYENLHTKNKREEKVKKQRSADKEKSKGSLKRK
UniProt Q13308: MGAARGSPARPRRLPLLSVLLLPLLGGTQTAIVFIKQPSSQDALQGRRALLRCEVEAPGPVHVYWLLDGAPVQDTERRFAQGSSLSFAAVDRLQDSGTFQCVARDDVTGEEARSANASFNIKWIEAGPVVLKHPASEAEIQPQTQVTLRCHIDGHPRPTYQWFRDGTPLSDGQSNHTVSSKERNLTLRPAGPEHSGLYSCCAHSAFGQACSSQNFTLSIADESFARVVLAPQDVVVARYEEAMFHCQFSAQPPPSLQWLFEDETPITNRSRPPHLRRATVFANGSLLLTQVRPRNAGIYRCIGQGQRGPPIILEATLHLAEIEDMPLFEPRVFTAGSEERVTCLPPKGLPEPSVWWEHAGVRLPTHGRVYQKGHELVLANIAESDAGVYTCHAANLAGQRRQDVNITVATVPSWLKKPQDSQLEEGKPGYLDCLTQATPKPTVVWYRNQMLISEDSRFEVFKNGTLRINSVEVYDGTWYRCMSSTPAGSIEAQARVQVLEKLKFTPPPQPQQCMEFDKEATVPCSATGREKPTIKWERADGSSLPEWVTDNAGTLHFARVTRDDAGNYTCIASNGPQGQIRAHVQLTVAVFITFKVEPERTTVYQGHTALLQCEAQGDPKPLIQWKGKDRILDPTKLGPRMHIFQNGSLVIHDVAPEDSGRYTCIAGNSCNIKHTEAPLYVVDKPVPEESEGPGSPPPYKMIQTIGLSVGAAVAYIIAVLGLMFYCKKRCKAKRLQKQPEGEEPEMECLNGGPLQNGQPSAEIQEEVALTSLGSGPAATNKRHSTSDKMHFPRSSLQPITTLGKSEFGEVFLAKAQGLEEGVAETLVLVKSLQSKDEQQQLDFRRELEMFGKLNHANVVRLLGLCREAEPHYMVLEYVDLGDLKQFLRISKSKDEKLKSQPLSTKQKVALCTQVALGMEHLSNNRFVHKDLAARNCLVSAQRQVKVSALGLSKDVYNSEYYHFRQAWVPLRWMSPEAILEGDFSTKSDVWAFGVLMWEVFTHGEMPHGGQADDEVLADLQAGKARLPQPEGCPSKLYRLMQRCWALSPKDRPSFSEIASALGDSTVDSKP
UniProt Q05209: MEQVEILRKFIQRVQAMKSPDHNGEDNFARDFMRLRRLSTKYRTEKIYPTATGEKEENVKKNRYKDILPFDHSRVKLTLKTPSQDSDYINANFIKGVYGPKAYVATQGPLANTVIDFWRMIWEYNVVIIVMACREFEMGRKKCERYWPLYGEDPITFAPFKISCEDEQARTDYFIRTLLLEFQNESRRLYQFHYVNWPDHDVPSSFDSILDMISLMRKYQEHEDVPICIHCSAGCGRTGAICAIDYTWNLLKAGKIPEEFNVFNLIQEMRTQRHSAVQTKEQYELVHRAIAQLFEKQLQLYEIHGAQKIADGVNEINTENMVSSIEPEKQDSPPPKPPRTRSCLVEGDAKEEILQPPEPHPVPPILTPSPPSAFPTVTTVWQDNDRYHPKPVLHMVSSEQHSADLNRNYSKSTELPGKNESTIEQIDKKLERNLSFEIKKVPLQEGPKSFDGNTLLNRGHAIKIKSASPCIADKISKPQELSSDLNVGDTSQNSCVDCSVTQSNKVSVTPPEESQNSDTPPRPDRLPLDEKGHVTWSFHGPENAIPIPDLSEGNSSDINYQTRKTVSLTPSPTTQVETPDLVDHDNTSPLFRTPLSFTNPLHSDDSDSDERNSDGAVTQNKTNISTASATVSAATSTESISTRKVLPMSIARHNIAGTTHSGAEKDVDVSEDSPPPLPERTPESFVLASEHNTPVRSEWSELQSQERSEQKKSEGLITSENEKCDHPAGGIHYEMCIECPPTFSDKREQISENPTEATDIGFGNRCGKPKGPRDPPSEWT
UniProt P28074: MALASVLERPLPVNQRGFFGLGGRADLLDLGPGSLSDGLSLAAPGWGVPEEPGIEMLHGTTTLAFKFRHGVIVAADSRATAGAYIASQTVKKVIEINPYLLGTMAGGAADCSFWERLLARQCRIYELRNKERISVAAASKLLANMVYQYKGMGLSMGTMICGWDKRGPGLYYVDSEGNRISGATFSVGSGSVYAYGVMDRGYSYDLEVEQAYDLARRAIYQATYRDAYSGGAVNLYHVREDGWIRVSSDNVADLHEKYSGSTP
UniProt P78330: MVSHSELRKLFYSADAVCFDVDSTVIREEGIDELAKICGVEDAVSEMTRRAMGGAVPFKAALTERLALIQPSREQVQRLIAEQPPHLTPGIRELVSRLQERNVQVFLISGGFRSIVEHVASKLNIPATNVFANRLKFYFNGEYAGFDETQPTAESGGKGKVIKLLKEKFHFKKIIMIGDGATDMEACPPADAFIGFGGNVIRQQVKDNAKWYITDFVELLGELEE
UniProt Q5JS54: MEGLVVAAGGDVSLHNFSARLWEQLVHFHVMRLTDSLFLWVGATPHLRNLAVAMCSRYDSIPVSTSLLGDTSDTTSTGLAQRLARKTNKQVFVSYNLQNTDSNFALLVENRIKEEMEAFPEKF
UniProt P07602: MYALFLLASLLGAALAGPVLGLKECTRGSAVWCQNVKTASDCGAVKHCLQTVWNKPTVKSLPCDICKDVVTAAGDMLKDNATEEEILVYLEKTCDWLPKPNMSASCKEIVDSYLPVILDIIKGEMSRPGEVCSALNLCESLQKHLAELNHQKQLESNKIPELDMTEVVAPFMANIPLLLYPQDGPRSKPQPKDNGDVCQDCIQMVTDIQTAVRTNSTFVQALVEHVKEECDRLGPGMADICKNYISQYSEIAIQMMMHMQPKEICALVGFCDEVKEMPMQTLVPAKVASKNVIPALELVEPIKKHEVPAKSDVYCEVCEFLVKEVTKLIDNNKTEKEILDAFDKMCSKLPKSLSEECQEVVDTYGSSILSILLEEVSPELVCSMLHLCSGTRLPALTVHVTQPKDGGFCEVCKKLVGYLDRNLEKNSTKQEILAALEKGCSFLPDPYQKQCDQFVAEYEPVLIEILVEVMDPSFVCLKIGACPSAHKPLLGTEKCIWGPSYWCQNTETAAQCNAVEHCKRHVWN
UniProt P35236: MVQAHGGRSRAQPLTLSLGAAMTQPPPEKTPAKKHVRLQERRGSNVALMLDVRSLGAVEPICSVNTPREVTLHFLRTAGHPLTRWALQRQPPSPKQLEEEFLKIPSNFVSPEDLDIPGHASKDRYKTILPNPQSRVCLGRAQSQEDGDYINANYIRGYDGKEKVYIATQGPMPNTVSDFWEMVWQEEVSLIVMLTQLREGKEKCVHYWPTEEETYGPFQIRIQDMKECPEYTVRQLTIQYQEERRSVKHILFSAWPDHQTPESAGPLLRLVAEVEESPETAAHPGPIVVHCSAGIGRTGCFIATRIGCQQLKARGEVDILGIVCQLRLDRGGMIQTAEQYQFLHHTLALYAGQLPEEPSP
UniProt Q15008: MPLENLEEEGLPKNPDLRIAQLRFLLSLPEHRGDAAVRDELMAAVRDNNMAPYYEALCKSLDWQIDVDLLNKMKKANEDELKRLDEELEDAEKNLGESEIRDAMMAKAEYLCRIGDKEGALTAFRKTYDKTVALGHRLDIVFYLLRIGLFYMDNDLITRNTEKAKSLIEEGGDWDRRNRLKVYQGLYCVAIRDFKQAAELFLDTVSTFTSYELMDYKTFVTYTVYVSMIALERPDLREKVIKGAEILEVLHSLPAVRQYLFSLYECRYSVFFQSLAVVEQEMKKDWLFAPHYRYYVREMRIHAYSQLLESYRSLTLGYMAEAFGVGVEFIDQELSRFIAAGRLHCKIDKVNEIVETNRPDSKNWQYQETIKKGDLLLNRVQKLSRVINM
UniProt Q06323: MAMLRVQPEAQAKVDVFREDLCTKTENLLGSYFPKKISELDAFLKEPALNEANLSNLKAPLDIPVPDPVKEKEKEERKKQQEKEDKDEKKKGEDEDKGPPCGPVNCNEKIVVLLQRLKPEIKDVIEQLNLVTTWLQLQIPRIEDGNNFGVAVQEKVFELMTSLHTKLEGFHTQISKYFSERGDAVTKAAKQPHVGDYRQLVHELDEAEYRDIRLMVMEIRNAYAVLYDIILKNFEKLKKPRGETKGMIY
UniProt P35998: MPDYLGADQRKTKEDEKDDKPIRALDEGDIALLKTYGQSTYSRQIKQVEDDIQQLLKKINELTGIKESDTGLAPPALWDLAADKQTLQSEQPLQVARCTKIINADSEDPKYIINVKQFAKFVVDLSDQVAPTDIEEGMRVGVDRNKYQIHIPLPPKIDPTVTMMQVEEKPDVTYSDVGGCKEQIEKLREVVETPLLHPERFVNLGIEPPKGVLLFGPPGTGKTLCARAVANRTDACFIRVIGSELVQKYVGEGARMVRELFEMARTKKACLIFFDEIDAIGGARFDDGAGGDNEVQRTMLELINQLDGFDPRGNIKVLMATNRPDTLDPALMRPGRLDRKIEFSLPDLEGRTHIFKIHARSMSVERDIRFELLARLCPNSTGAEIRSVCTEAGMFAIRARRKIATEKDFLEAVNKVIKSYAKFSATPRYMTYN
UniProt O00487, whole entry, looked up: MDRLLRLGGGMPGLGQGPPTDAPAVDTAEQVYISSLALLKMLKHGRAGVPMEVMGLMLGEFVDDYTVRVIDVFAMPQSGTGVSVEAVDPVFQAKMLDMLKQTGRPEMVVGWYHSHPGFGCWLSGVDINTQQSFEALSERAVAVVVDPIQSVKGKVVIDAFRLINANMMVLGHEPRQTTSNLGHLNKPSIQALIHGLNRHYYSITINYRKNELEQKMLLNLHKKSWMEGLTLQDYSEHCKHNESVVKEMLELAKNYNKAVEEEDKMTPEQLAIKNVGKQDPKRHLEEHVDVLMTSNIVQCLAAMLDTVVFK

How the values were obtained:
Assay in all cases: log2 fold change, soluble protein after heating vs DMSO (PISA); higher = thermal stabilisation; K562 lysate, 10 uM; active = over 0.2 and 3.5 SD of the protein, either way, in both replicates (recomputed)
alvocidib = compound: CN1CC[C@H](c2c(O)cc(O)c3c(=O)cc(-c4ccccc4Cl)oc23)[C@H](O)C1 [alvocidib]
Outline: (§1)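 To prepare the extract, K562 pellets were dounce-homogenised in PBS pH 7.4 with 1 mM MgCl2, giving crude material at 1 mg/mL protein. This was treated with 10 μM compound for 30 min, then heated in aliquots for 3 min over 48°C-58°C before pooling and addition of NP-40 to 0.5% at 4°C. Centrifugation at 21,000xg for 90 min left soluble protein in the supernatant, which TMTpro 16plex LC-MS/MS quantified with equalised channel sums. Results are log-two fold changes in thermal stability compared with solvent controls, from duplicates.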

Tubastatin A = compound: CN1CCc2c(c3ccccc3n2Cc2ccc(C(=O)NO)cc2)C1 [Tubastatin A]
Outline: as §1

[1] = compound: CNC(=O)C1=CC=CC=C1NC2=NC(=NC=C2Cl)NC3=C(C=C(C=C3)N4CCOCC4)OC
Outline: as §1

defactinib = compound: CNC(=O)c1ccc(Nc2ncc(C(F)(F)F)c(NCc3nccnc3N(C)S(C)(=O)=O)n2)cc1 [defactinib]
Outline: as §1

[2] = compound: CNc1nc(-c2ccc3c(N)n[nH]c3c2)cc(N2C[C@@H](C(=O)NC3CCCCC3)CC[C@H]2C)n1
Outline: as §1

encorafenib = compound: COC(=O)N[C@@H](C)CNc1nccc(-c2cn(C(C)C)nc2-c2cc(Cl)cc(NS(C)(=O)=O)c2F)n1 [encorafenib]
Outline: as §1

[3] = compound: COC(=O)[C@H](CCSC)NC(=O)C1=C(C=C(C=C1)NC[C@H](CS)N)C2=CC=CC=C2
Outline: as §1

alisertib = compound: COc1cc(Nc2ncc3c(n2)-c2ccc(Cl)cc2C(c2c(F)cccc2OC)=NC3)ccc1C(=O)O [alisertib]
Outline: as §1

[4] = compound: COc1cc2nc(-c3cc(F)ccc3O)nc(N[C@@H]3CNC[C@H]3C(C)(C)O)c2cc1OC
Outline: as §1

gefitinib = compound: COc1cc2ncnc(Nc3ccc(F)c(Cl)c3)c2cc1OCCCN1CCOCC1 [gefitinib]
Outline: as §1

lapatinib = compound: CS(=O)(=O)CCNCc1ccc(-c2ccc3ncnc(Nc4ccc(OCc5cccc(F)c5)c(Cl)c4)c3c2)o1 [lapatinib]
Outline: as §1

pictilisib = compound: CS(=O)(=O)N1CCN(Cc2cc3nc(-c4cccc5[nH]ncc45)nc(N4CCOCC4)c3s2)CC1 [pictilisib]
Outline: as §1

crizotinib = compound: C[C@@H](Oc1cc(-c2cnn(C3CCNCC3)c2)cnc1N)c1c(Cl)ccc(F)c1Cl [crizotinib]
Outline: as §1

[5] = compound: C[C@H](C1=CC=C(C=C1)C(=O)NC2=C3C=CNC3=NC=C2)N
Outline: as §1

duvelisib = compound: C[C@H](Nc1ncnc2nc[nH]c12)c1cc2cccc(Cl)c2c(=O)n1-c1ccccc1 [duvelisib]
Outline: as §1

gandotinib = compound: Cc1cc(Nc2cc(CN3CCOCC3)c3nc(C)c(Cc4ccc(Cl)cc4F)n3n2)n[nH]1 [gandotinib]
Outline: as §1

tozasertib = compound: Cc1cc(Nc2cc(N3CCN(C)CC3)nc(Sc3ccc(NC(=O)C4CC4)cc3)n2)n[nH]1 [tozasertib]
Outline: as §1

doramapimod = compound: Cc1ccc(-n2nc(C(C)(C)C)cc2NC(=O)Nc2ccc(OCCN3CCOCC3)c3ccccc23)cc1 [doramapimod]
Outline: as §1

bafetinib = compound: Cc1ccc(NC(=O)c2ccc(CN3CC[C@H](N(C)C)C3)c(C(F)(F)F)c2)cc1Nc1nccc(-c2cncnc2)n1 [bafetinib]
Outline: as §1

[6] = compound: Cc1cccc(CC(=O)N2CCc3c2ccc(-c2cn(C)c4ncnc(N)c24)c3F)n1
Outline: as §1

Measured: log2 fold change

PTPN1 (UniProt P18031)
inactive: alvocidib -0.002 | Tubastatin A -0.048 | [1] 0.018 | defactinib 0.015 | [2] -0.033 | encorafenib -0.003 | [3] 0.014 | alisertib 0.005 | [4] 0.047 | gefitinib 0.014 | lapatinib -0.022 | pictilisib -0.022 | crizotinib -0.031 | [5] -0.042 | duvelisib -0.007 | gandotinib -0.055 | tozasertib 0.069 | doramapimod 0.059 | bafetinib -0.029 | [6] 0.062

PSMF1 (UniProt Q92530)
inactive: alvocidib -0.121 | Tubastatin A -0.006 | [1] -0.001 | defactinib -0.022 | [2] 0.043 | encorafenib 0.004 | [3] -0.035 | alisertib -0.012 | [4] 0.002 | gefitinib 0.007 | lapatinib -0.004 | pictilisib 0.068 | crizotinib -0.026 | [5] -0.193 | duvelisib -0.011 | gandotinib 0.182 | tozasertib 0.003 | doramapimod 0.062 | bafetinib 0.051 | [6] 0.144

PSMA7 (UniProt O14818)
inactive: alvocidib 0.012 | Tubastatin A 0.046 | [1] 0.008 | defactinib -0.032 | [2] 0.005 | encorafenib -0.011 | [3] -0.032 | alisertib 0.001 | [4] -0.008 | gefitinib 0.028 | lapatinib -0.017 | pictilisib 0.007 | crizotinib 0.058 | [5] 0.035 | duvelisib -0.031 | gandotinib -0.032 | tozasertib 0.003 | doramapimod -0.046 | bafetinib 0.022 | [6] -0.071

PTPN6 isoform 4 (UniProt P29350)
inactive: alvocidib -0.12 | Tubastatin A -0.185 | [1] 0.037 | defactinib -0.015 | [2] -0.008 | encorafenib 0.028 | [3] 0.261 | alisertib -0.218 | [4] -0.034 | gefitinib 0.045 | lapatinib -0.227 | pictilisib -0.058 | crizotinib 0.02 | [5] -0.038 | duvelisib -0.013 | gandotinib -0.28 | tozasertib 0 | doramapimod 0.015 | bafetinib -0.278 | [6] 0.135

PTK7 isoform 6 (UniProt Q13308)
inactive: alvocidib 0.013 | Tubastatin A 0.007 | [1] 0.012 | defactinib 0.055 | [2] 0.019 | encorafenib -0.031 | [3] -0.028 | alisertib 0.041 | [4] -0.071 | gefitinib -0.069 | lapatinib -0.088 | pictilisib 0.016 | crizotinib -0.019 | [5] -0.062 | duvelisib -0.03 | gandotinib 0.014 | tozasertib -0.022 | doramapimod -0.021 | bafetinib 0.023 | [6] 0.03

PTPN12 (UniProt Q05209)
inactive: alvocidib -0.001 | Tubastatin A 0.005 | [1] 0.018 | defactinib 0.008 | [2] 0.009 | encorafenib 0.017 | [3] -0.038 | alisertib -0.02 | [4] -0.001 | gefitinib 0.009 | lapatinib 0.019 | pictilisib 0.023 | crizotinib 0.007 | [5] 0.023 | duvelisib 0.025 | gandotinib -0.048 | tozasertib 0.006 | doramapimod -0.009 | bafetinib -0.007 | [6] 0.001

PSMB5 (UniProt P28074)
inactive: alvocidib 0.009 | Tubastatin A 0.016 | [1] 0.006 | defactinib 0.01 | [2] 0.041 | encorafenib -0.005 | [3] -0.034 | alisertib -0.016 | [4] 0.015 | gefitinib -0.009 | lapatinib -0.025 | pictilisib 0.016 | crizotinib 0.029 | [5] -0.008 | duvelisib 0.004 | gandotinib 0.018 | tozasertib -0.001 | doramapimod -0.028 | bafetinib -0.002 | [6] -0.023

Reprinted from above (two entries):
PTK7 isoform 6 (UniProt Q13308)
inactive: alvocidib 0.013 | Tubastatin A 0.007 | [1] 0.012 | defactinib 0.055 | [2] 0.019 | encorafenib -0.031 | [3] -0.028 | alisertib 0.041 | [4] -0.071 | gefitinib -0.069 | lapatinib -0.088 | pictilisib 0.016 | crizotinib -0.019 | [5] -0.062 | duvelisib -0.03 | gandotinib 0.014 | tozasertib -0.022 | doramapimod -0.021 | bafetinib 0.023 | [6] 0.03

PTPN12 (UniProt Q05209)
inactive: alvocidib -0.001 | Tubastatin A 0.005 | [1] 0.018 | defactinib 0.008 | [2] 0.009 | encorafenib 0.017 | [3] -0.038 | alisertib -0.02 | [4] -0.001 | gefitinib 0.009 | lapatinib 0.019 | pictilisib 0.023 | crizotinib 0.007 | [5] 0.023 | duvelisib 0.025 | gandotinib -0.048 | tozasertib 0.006 | doramapimod -0.009 | bafetinib -0.007 | [6] 0.001

Following part.

PSPH (UniProt P78330)
inactive: alvocidib -0.038 | Tubastatin A 0.076 | [1] -0.006 | defactinib -0.021 | [2] 0.058 | encorafenib -0.031 | [3] -0.015 | alisertib -0.031 | [4] 0.015 | gefitinib 0.015 | lapatinib -0.015 | pictilisib -0.076 | crizotinib 0.023 | [5] -0.09 | duvelisib 0.02 | gandotinib 0.058 | tozasertib -0.006 | doramapimod 0.007 | bafetinib -0.036 | [6] 0.027

PSMG4 isoform 2 (UniProt Q5JS54)
inactive: alvocidib -0.141 | Tubastatin A -0.056 | [1] 0.055 | defactinib 0.01 | [2] 0.113 | encorafenib 0.058 | [3] 0.012 | alisertib -0.098 | [4] -0.036 | gefitinib 0.018 | lapatinib 0.157 | pictilisib 0.113 | crizotinib -0.069 | [5] 0.096 | duvelisib -0.02 | gandotinib 0.098 | tozasertib -0.012 | doramapimod 0.085 | bafetinib 0.038 | [6] -0.02

PSAP isoform 3 (UniProt P07602)
inactive: alvocidib 0.032 | Tubastatin A 0.028 | [1] 0.003 | defactinib 0.008 | [2] -0.034 | encorafenib -0.012 | [3] -0.069 | alisertib 0.027 | [4] 0.002 | gefitinib 0.027 | lapatinib 0.019 | pictilisib -0.004 | crizotinib 0.07 | [5] -0.004 | duvelisib 0.089 | gandotinib 0.01 | tozasertib 0.023 | doramapimod -0.031 | bafetinib 0.01 | [6] -0.023

PTPN7 isoform 3 (UniProt P35236)
inactive: alvocidib -0.082 | Tubastatin A -0.138 | [1] 0.057 | defactinib 0.017 | [2] 0.038 | encorafenib -0.051 | [3] 0.122 | alisertib 0.021 | [4] -0.023 | gefitinib -0.025 | lapatinib -0.025 | pictilisib -0.04 | crizotinib 0.043 | [5] -0.028 | duvelisib -0.006 | gandotinib 0.056 | tozasertib 0 | doramapimod 0.007 | bafetinib 0.036 | [6] 0.115

PSMD6 isoform 4 (UniProt Q15008)
inactive: alvocidib 0.009 | Tubastatin A 0.021 | [1] -0.006 | defactinib -0.001 | [2] 0.004 | encorafenib 0 | [3] 0.022 | alisertib 0.014 | [4] 0.009 | gefitinib 0.011 | lapatinib -0.005 | pictilisib 0.062 | crizotinib -0.016 | [5] 0.015 | duvelisib 0.018 | gandotinib -0.093 | tozasertib -0.022 | doramapimod -0.003 | bafetinib 0.02 | [6] 0.009

PSME1 (UniProt Q06323)
inactive: alvocidib 0.03 | Tubastatin A -0.009 | [1] 0.025 | defactinib 0.027 | [2] -0.033 | encorafenib -0.011 | [3] -0.005 | alisertib -0.007 | [4] 0.013 | gefitinib -0.005 | lapatinib 0.009 | pictilisib -0.005 | crizotinib 0.065 | [5] 0.037 | duvelisib 0.007 | gandotinib -0.03 | tozasertib 0.008 | doramapimod 0.032 | bafetinib 0.068 | [6] -0.08

PSMC2 (UniProt P35998)
inactive: alvocidib 0.017 | Tubastatin A -0.006 | [1] -0.002 | defactinib 0.017 | [2] 0.04 | encorafenib -0.012 | [3] 0.064 | alisertib 0.02 | [4] 0.006 | gefitinib -0.01 | lapatinib -0.015 | pictilisib -0.015 | crizotinib -0.016 | [5] 0.015 | duvelisib 0 | gandotinib -0.084 | tozasertib 0.003 | doramapimod 0.017 | bafetinib 0.031 | [6] -0.033

PSMD14 (UniProt O00487)
inactive: alvocidib 0.029 | Tubastatin A 0.007 | [1] -0.003 | defactinib 0.001 | [2] -0.013 | encorafenib -0.013 | [3] 0.055 | alisertib 0.01 | [4] -0.034 | gefitinib 0.019 | lapatinib 0.003 | pictilisib 0.005 | crizotinib 0.015 | [5] 0.014 | duvelisib 0 | gandotinib -0.067 | tozasertib -0.003 | doramapimod 0.003 | bafetinib 0.021 | [6] 0.001
